# Experimental data reported in the supplement of paper PMC8728848.
# Some of the results follow.
# B1: SUN4P (Saccharomyces cerevisiae), P53616 (protein)
# chain: MGSSHHHHHHSSGLVPRGSHNGSIYGDLADFSGPYEKFEDGTIPCGQFPSGQGVIPISWLDEGGWSGVENTDTSTGGSCKEGSYCSYACQPGMSKTQWPSDQPSDGRSIGGLLCKDGYLYRSNTDTDYLCEWGVDAAYVVSELSNDVAICLTDYPGTENMVIPTYVQAGDSLPLTVVDQDTYYTWQGLKTSAQYYVNNAGISVEDACVWGSSSSGVGNWAPLNFGAGSSDGVAYLSLIPNPNNGNALNFNVKIVAADDSSTVNGECIYENGSFSGGSDGCTVSVTAGKAKFVLYN
# How the values were obtained:
# Experiment in all cases: glycan array binding signal (z-score within array); higher = stronger binding
# Settings in all cases: glycan notation: IUPAC condensed, linker removed; mutation: R276L
# [1] = biological target: Fuc(a1-3)[Gal(b1-4)]GlcNAc(b1-3)Gal(b1-3)[Fuc(a1-4)]GlcNAc
# Summary of the method: (§1)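 The binding signal is a Z-score computed within each array and averaged over linkers. Arrays of the same protein sequence at different concentrations or buffers were also averaged together. Data originate from 3228 arrays in the Consortium for Functional Glycomics database, kept only where the protein sequence was available.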
# [2] = biological target: Fuc(a1-3)[Gal(b1-4)]GlcNAc(b1-3)Gal(b1-4)[Fuc(a1-3)]GlcNAc
# Summary of the method: as §1
# [3] = biological target: Fuc(a1-3)[Gal(b1-4)]GlcNAc(b1-3)Gal(b1-4)[Fuc(a1-3)]GlcNAc(b1-3)Gal(b1-4)[Fuc(a1-3)]GlcNAc
# Summary of the method: as §1
# [4] = biological target: Fuc(a1-3)[Gal(b1-4)]GlcNAc(b1-3)GalNAc
# Summary of the method: as §1
# [5] = biological target: Fuc(a1-3)[Gal(b1-4)]GlcNAc(b1-6)GalNAc
# Summary of the method: as §1
# [6] = biological target: Fuc(a1-3)[Gal(b1-4)]GlcNAc(b1-6)[Gal(b1-3)GlcNAc(b1-3)]Gal(b1-4)Glc
# Summary of the method: as §1
# [7] = biological target: Fuc(a1-3)[Gal(b1-4)]GlcNAc6S
# Summary of the method: as §1
# [8] = biological target: Fuc(a1-3)[Gal3S(b1-4)]Glc
# Summary of the method: as §1
# [9] = biological target: Fuc(a1-3)[Gal3S(b1-4)]GlcNAc
# Summary of the method: as §1
# [10] = biological target: Fuc(a1-3)[Gal3S(b1-4)]GlcNAc6S
# Summary of the method: as §1
# [11] = biological target: Fuc(a1-3)[GalNAc(b1-4)]GlcNAc
# Summary of the method: as §1
# [12] = biological target: Fuc(a1-3)[GalNAc(b1-4)]GlcNAc6S
# Summary of the method: as §1
# [13] = biological target: Fuc(a1-4)GlcNAc
# Summary of the method: as §1
# [14] = biological target: Fuc(b1-3)GlcNAc
# Summary of the method: as §1
# [15] = biological target: Gal(a1-2)Gal
# Summary of the method: as §1
# [16] = biological target: Gal(a1-3)Gal
# Summary of the method: as §1
# [17] = biological target: Gal(a1-3)Gal(b1-3)GlcNAc
# Summary of the method: as §1
# [18] = biological target: Gal(a1-3)Gal(b1-3)GlcNAc(b1-2)Man
# Summary of the method: as §1
# [19] = biological target: Gal(a1-3)Gal(b1-3)GlcNAc(b1-2)Man(a1-3)[Gal(a1-3)Gal(b1-3)GlcNAc(b1-2)Man(a1-6)]Man(b1-4)GlcNAc(b1-4)GlcNAc
# Summary of the method: as §1
# [20] = biological target: Gal(a1-3)Gal(b1-3)GlcNAc(b1-3)GalNAc
# Summary of the method: as §1
# [21] = biological target: Gal(a1-3)Gal(b1-3)GlcNAc(b1-6)GalNAc
# Summary of the method: as §1
# [22] = biological target: Gal(a1-3)Gal(b1-3)[Fuc(a1-4)]GlcNAc(b1-2)Man(a1-3)[Gal(a1-3)Gal(b1-3)[Fuc(a1-4)]GlcNAc(b1-2)Man(a1-6)]Man(b1-4)GlcNAc(b1-4)GlcNAc
# Summary of the method: as §1
# [23] = biological target: Gal(a1-3)Gal(b1-4)Glc
# Summary of the method: as §1
# [24] = biological target: Gal(a1-3)Gal(b1-4)GlcNAc
# Summary of the method: as §1
# [25] = biological target: Gal(a1-3)Gal(b1-4)GlcNAc(b1-2)Man
# Summary of the method: as §1
# [26] = biological target: Gal(a1-3)Gal(b1-4)GlcNAc(b1-2)Man(a1-3)[Gal(a1-3)Gal(b1-4)GlcNAc(b1-2)Man(a1-6)]Man(b1-4)GlcNAc(b1-4)GlcNAc
# Summary of the method: as §1
# [27] = biological target: Gal(a1-3)Gal(b1-4)GlcNAc(b1-3)GalNAc
# Summary of the method: as §1
# [28] = biological target: Gal(a1-3)Gal(b1-4)GlcNAc(b1-6)GalNAc
# Summary of the method: as §1
# [29] = biological target: Gal(a1-3)Gal(b1-4)[Fuc(a1-3)]GlcNAc
# Summary of the method: as §1
# [30] = biological target: Gal(a1-3)Gal(b1-4)[Fuc(a1-3)]GlcNAc(b1-2)Man(a1-3)[Gal(a1-3)Gal(b1-4)[Fuc(a1-3)]GlcNAc(b1-2)Man(a1-6)]Man(b1-4)GlcNAc(b1-4)GlcNAc
# Summary of the method: as §1
# [31] = biological target: Gal(a1-3)GalNAc
# Summary of the method: as §1
# [32] = biological target: Gal(a1-3)[Gal(a1-4)]Gal(b1-4)GlcNAc
# Summary of the method: as §1
# [33] = biological target: Gal(a1-4)Gal(b1-3)GlcNAc(b1-2)Man(a1-3)[Gal(a1-4)Gal(b1-3)GlcNAc(b1-2)Man(a1-6)]Man(b1-4)GlcNAc(b1-4)GlcNAc
# Summary of the method: as §1
# [34] = biological target: Gal(a1-4)Gal(b1-4)Glc
# Summary of the method: as §1
# [35] = biological target: Gal(a1-4)Gal(b1-4)GlcNAc
# Summary of the method: as §1
# [36] = biological target: Gal(a1-4)Gal(b1-4)GlcNAc(b1-2)Man(a1-3)[Gal(a1-4)Gal(b1-4)GlcNAc(b1-2)Man(a1-6)]Man(b1-4)GlcNAc(b1-4)GlcNAc
# Summary of the method: as §1
# [37] = biological target: Gal(a1-4)Gal(b1-4)GlcNAc(b1-3)Gal(b1-4)Glc
# Summary of the method: as §1
# [38] = biological target: Gal(a1-4)GlcNAc
# Summary of the method: as §1
binder,measurement,setting,value
B1,glycan array binding signal (z-score),[1],-0.188
same,glycan array binding signal (z-score),[2],0.253
same,glycan array binding signal (z-score),[3],0.692
same,glycan array binding signal (z-score),[4],0.07
same,glycan array binding signal (z-score),[5],0.619
same,glycan array binding signal (z-score),[6],-0.206
same,glycan array binding signal (z-score),[7],0.572
same,glycan array binding signal (z-score),[8],-0.346
same,glycan array binding signal (z-score),[9],-0.386
same,glycan array binding signal (z-score),[10],-0.358
same,glycan array binding signal (z-score),[11],-0.53
same,glycan array binding signal (z-score),[12],-0.524
same,glycan array binding signal (z-score),[13],-0.981
same,glycan array binding signal (z-score),[14],0.466
same,glycan array binding signal (z-score),[15],-1.48
same,glycan array binding signal (z-score),[16],-0.653
same,glycan array binding signal (z-score),[17],-0.743
same,glycan array binding signal (z-score),[18],-0.15
same,glycan array binding signal (z-score),[19],0.555
same,glycan array binding signal (z-score),[20],1.05
same,glycan array binding signal (z-score),[21],-0.585
same,glycan array binding signal (z-score),[22],-0.029
same,glycan array binding signal (z-score),[23],-0.295
same,glycan array binding signal (z-score),[24],-0.685
same,glycan array binding signal (z-score),[25],-0.347
same,glycan array binding signal (z-score),[26],0.172
same,glycan array binding signal (z-score),[27],-0.405
same,glycan array binding signal (z-score),[28],-0.073
same,glycan array binding signal (z-score),[29],0.297
same,glycan array binding signal (z-score),[30],0.871
same,glycan array binding signal (z-score),[31],0.528
same,glycan array binding signal (z-score),[32],-0.711
same,glycan array binding signal (z-score),[33],0.183
same,glycan array binding signal (z-score),[34],-0.891
same,glycan array binding signal (z-score),[35],-0.161
same,glycan array binding signal (z-score),[36],1.37
same,glycan array binding signal (z-score),[37],-0.942
same,glycan array binding signal (z-score),[38],-0.2

# In another format: results already given.
binder	measurement	setting	value
B1	glycan array binding signal (z-score)	[3]	0.692
same	glycan array binding signal (z-score)	[30]	0.871
